# According to the supplement of paper PMC12819154, “High-throughput peptide-centric local stability assay extends protein–ligand identification to membrane proteins, tissues and bacteria” (Nature Structural & Molecular Biology, 2025):
# The chains behind the UniProt entries cited, without tags or fusion partners. Where a name states a change or a piece, a line headed by the entry shows the natural chain unless it says otherwise.
# UniProt Q07813, whole entry: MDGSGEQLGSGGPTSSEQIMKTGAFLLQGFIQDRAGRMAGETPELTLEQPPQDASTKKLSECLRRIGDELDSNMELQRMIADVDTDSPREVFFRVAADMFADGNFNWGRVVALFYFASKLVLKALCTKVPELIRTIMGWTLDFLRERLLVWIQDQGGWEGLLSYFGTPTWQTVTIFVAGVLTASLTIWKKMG
# UniProt Q3TC93: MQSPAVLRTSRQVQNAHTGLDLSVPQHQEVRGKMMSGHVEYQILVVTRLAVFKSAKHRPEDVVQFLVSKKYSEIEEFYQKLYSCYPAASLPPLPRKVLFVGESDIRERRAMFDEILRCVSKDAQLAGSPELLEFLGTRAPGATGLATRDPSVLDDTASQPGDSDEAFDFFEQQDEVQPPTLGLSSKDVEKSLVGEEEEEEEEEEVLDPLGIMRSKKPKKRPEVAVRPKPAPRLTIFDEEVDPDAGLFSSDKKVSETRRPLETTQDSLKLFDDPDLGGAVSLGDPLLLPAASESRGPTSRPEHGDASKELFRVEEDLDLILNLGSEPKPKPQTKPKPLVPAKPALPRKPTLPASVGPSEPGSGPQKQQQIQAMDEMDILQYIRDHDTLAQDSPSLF
# UniProt Q4VAA2: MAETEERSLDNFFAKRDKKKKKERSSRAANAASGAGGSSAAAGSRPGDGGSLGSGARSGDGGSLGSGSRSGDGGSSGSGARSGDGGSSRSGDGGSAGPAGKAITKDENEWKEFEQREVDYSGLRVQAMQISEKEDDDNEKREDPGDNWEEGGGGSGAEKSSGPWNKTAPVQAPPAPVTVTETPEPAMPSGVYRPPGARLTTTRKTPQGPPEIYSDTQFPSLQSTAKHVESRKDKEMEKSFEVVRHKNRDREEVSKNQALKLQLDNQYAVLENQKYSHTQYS
# UniProt Q0VGB7: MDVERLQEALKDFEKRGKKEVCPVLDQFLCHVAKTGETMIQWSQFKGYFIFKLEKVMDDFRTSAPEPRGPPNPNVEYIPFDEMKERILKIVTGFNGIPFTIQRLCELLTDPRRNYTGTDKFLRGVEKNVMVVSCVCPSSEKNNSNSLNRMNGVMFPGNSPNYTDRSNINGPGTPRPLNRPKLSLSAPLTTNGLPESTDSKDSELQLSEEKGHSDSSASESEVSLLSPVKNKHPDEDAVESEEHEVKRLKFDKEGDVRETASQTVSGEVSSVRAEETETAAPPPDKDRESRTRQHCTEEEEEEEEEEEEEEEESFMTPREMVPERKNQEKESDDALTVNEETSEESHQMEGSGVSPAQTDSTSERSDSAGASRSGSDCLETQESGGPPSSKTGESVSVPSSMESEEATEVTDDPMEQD
# UniProt Q56A08: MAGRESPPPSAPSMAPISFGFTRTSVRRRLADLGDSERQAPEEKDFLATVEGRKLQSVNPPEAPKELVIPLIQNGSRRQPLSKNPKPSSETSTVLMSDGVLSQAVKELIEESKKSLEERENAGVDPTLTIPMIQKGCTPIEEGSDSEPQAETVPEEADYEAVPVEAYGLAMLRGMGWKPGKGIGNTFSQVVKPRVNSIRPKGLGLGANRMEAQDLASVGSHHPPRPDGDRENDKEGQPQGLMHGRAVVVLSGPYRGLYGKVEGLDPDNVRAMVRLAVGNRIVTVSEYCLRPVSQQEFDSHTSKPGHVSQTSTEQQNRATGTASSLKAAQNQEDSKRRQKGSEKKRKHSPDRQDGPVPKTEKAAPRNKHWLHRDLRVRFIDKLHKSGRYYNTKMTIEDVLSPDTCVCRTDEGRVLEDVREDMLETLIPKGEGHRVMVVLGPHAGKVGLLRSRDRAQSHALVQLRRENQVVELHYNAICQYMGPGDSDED
# UniProt Q3U2V3: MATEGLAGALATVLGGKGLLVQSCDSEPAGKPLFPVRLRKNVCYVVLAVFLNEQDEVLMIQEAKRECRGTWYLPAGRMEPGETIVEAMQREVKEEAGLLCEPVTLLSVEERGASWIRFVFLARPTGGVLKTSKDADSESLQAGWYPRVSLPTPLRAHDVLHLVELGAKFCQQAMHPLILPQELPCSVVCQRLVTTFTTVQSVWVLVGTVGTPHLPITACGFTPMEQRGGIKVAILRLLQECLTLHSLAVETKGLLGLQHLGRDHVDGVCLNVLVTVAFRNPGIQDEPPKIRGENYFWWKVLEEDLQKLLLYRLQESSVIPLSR
# UniProt Q08857: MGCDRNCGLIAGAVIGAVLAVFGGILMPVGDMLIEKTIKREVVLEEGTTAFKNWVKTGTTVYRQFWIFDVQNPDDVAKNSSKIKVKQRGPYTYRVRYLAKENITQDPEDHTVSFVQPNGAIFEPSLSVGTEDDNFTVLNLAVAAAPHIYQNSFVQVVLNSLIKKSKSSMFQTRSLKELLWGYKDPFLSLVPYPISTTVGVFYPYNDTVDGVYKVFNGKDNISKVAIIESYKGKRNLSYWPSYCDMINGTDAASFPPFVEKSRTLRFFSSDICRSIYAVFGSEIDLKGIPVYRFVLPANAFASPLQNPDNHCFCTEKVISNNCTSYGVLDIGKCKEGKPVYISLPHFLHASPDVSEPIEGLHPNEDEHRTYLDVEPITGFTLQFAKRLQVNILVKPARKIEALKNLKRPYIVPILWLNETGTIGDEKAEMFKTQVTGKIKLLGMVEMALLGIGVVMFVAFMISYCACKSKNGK
# UniProt Q06185: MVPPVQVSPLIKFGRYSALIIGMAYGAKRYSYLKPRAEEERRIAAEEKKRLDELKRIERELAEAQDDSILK
# UniProt Q3TIV5: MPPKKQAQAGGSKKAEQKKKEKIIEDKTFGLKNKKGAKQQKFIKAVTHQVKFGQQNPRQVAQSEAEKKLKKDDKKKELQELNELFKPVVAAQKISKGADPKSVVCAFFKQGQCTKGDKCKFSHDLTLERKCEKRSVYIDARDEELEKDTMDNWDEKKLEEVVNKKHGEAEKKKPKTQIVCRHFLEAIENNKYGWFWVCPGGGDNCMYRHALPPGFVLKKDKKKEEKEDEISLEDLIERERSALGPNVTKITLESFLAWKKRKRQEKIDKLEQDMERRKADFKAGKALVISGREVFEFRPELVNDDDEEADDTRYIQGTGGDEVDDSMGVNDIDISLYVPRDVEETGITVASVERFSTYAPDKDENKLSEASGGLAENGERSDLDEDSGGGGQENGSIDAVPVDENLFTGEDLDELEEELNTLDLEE
# UniProt Q3TLH4: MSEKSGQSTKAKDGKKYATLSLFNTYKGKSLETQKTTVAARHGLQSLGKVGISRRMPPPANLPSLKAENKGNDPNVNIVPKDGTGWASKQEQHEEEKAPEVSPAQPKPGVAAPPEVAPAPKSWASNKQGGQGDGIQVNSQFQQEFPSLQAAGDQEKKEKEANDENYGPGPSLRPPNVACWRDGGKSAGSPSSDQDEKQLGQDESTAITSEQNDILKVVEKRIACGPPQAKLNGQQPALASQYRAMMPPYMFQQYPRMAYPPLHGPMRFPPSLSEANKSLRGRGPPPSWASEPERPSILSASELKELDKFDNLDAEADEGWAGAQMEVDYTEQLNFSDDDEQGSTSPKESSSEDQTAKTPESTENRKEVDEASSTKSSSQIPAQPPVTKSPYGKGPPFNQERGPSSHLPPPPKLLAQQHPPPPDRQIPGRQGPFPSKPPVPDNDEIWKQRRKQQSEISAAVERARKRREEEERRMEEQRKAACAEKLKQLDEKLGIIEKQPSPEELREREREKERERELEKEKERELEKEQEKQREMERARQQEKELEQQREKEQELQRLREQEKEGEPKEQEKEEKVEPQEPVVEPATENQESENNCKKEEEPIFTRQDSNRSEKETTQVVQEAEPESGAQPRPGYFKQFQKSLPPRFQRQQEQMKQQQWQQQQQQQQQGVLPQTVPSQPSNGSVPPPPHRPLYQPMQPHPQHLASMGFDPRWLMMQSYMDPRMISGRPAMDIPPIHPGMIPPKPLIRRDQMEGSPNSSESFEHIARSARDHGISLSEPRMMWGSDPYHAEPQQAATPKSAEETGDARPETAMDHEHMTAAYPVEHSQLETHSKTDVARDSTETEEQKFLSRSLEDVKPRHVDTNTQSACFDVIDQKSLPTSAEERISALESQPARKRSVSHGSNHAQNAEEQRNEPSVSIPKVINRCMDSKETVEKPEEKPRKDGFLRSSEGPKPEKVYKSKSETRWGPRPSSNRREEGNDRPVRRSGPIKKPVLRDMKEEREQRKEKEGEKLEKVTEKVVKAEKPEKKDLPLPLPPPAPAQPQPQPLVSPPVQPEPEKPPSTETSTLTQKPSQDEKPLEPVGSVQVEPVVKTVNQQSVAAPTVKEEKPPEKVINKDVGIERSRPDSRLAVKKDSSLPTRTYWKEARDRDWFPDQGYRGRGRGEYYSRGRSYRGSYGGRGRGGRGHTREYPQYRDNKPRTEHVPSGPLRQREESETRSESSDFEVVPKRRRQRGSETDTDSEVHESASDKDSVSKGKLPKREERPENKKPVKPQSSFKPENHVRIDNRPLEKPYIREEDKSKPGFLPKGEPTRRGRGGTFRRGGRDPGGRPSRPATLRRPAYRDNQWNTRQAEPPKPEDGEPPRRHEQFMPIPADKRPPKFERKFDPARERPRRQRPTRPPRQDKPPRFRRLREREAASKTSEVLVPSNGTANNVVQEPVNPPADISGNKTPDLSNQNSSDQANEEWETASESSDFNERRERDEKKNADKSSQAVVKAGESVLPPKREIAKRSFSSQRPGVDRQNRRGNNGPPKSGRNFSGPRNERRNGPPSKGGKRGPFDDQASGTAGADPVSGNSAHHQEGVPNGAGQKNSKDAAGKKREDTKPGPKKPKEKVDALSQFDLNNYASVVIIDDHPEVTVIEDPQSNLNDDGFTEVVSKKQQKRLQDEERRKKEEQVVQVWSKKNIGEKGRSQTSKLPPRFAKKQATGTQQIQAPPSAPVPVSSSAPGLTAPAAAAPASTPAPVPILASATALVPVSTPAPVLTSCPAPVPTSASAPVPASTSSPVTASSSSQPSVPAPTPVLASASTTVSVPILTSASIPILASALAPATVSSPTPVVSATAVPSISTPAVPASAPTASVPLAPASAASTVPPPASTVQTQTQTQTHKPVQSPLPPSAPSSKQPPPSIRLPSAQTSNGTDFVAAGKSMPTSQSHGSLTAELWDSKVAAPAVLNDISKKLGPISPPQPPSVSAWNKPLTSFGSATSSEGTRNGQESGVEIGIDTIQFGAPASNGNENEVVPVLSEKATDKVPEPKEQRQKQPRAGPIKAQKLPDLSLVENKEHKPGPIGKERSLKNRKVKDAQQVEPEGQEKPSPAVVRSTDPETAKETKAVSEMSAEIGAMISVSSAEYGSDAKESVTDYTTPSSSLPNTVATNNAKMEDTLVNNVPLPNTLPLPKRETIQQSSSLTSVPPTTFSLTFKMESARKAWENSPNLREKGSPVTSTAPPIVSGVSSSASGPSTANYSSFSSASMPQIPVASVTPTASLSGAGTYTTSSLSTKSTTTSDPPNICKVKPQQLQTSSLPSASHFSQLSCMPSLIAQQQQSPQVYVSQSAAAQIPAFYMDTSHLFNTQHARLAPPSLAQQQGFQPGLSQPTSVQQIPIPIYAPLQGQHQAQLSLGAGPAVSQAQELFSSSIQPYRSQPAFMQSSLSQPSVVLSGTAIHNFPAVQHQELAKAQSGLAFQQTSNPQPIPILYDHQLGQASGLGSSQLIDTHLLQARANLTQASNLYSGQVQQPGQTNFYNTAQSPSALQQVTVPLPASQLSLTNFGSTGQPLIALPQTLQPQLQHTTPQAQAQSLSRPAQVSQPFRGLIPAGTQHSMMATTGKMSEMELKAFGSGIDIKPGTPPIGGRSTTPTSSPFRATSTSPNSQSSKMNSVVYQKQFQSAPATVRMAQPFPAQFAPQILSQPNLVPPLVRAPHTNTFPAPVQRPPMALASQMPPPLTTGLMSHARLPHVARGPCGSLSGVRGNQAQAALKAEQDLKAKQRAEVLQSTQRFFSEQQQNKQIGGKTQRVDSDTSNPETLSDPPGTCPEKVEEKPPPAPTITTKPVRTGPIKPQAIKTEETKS
# UniProt P99027, whole entry: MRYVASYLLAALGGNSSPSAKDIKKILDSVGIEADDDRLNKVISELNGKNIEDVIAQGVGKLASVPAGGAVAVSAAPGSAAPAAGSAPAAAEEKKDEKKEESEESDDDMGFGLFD
# UniProt Q3U1F9: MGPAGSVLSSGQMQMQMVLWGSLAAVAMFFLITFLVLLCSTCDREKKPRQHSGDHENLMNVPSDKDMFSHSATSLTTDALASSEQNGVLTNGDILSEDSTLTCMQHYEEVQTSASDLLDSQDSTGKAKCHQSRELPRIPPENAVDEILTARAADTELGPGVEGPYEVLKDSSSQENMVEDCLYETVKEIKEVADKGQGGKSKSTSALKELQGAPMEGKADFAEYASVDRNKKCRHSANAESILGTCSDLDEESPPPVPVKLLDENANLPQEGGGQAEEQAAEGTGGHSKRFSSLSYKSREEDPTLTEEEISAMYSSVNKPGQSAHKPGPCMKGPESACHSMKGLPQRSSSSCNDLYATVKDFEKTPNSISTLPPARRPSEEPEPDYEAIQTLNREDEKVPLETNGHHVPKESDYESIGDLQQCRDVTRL
# This is one part of the list. Small differences around the control level are noise.
# Compound: CN[C@@H]1C[C@H]2O[C@@](C)([C@@H]1OC)n1c3ccccc3c3c4c(c5c6ccccc6n2c5c31)C(=O)NC4 [staurosporine]
# Assay: log2 fold change of pooled soluble protein (PISA), ligand vs vehicle (log2 ratio); higher = more thermally stabilized
# Settings: ligand concentration: 20 uM; assay format: PISA pool 52.9/55.5/58.6 C
row,Target,log2 fold change of pooled soluble protein
1,UniProt Q07113,0.0665
2,UniProt Q05421,-0.0185
3,UniProt Q07813,-0.181
4,UniProt Q3TC93,-0.135
5,UniProt Q571G4,0.183
6,UniProt Q4VAA2,-0.11
7,UniProt P98203,-0.424
8,UniProt Q14CH1,-0.028
9,UniProt Q569Z5,-0.0865
10,UniProt P98083,0.388
11,UniProt Q01730,-0.121
12,UniProt Q3THG9,0.0984
13,UniProt Q0VGB7,0.0778
14,UniProt Q3TNA1,0.0212
15,UniProt P97863,0.0895
16,UniProt Q3U2C5,-0.059
17,UniProt Q3UZA1,-0.00135
18,UniProt Q56A08,-0.254

row,Target,log2 fold change of pooled soluble protein
1,UniProt Q3TZZ7,0.3
2,UniProt Q3U5Q7,-0.00692
3,UniProt Q3U2V3,-0.0405
4,UniProt Q08857,-0.0986
5,UniProt Q06185,-0.0627
6,UniProt Q03311,-0.0349
7,UniProt Q3TIV5,-0.104
8,UniProt Q5DU09,0.68
9,UniProt Q3TCX3,-0.0409
10,UniProt Q3TLH4,0.0201
11,UniProt P99027,-0.18
12,UniProt Q07417,-0.0713
13,UniProt Q3U1F9,-0.12
14,UniProt Q3URS9,-0.151
15,UniProt Q3TL44,-0.0568
16,UniProt Q3UVU3,0.104
17,UniProt Q02357,0.00621
18,UniProt Q3UVK0,-0.0101

# Not a retest: entries from further up.
row,Target,log2 fold change of pooled soluble protein
14,UniProt Q3URS9,-0.151
15,UniProt Q3TL44,-0.0568
